Laboratory results: PubChem BioAssay AID2685 (National Center for Advancing Translational Sciences (NCATS), 2010)
The list shows a part of the results. The main result of the screen is listed elsewhere. These columns were measured beside it and carry no call. Compounds called inactive in the main read-out are mostly missing here. The note in brackets gives the kind of curve behind each potency; many fits are weak.

Experiment: qHTS Assay for Lipid Storage Modulators in Drosophila S3 Cells;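 on cell number change: cells counted by Cell Tracker Red CMTPX staining in the red channel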
Conditions: BODIPY lipid droplet fluorescence, 18-24 h; for cell number change: measured here: cell count max response, cells fed with added oleic acid
Outline: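 Drosophila S3 cells got compounds at several concentrations plus oleic acid (400 uM solution). Laser-scanning cytometry with 488 nm excitation read lipid droplets at 500-530 nm and cells at 575-640 nm. Percent activity was relative to 20 uM Triacsin C.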

[1] = measured here: lipid fluorescence (Fed channel) AC50, cells fed with added oleic acid
[2] = measured here: cell number channel AC50, cells fed with added oleic acid

## O=C(NCCC(=O)N1CCCC1)c1ccccc1Cl
  cell number change: 13%
[1]
  AC50: 1300 nM [rising, full curve]

## CCOP(=O)(OCC)C(Nc1cccc(C(F)(F)F)c1)c1ccc(C)cc1 (centres undefined)
  cell number change: -2.24%
[1]
  AC50: 651 nM [falling, partial curve, poor fit]

## Cc1ccc(Nc2nc(N)nc(CSc3nccn3C)n2)c(C)c1
  cell number change: 16.8%
[1]
  AC50: 920 nM [rising, partial curve]

## Cc1ccnc(SCCn2c(N3CCN(C)CC3)nc3c2c(=O)n(C)c(=O)n3C)n1
  cell number change: -11.7%
[1]
  AC50: 231 nM [falling, full curve, poor fit]

## Cc1ccc(NC(=O)CSCC(=O)OC(C)C(=O)Nc2ccc(S(N)(=O)=O)cc2)c(C)c1 (centres undefined)
  cell number change: -3.1%

## Cc1ccc(NC(=O)CSc2nnc(-c3cnccn3)n2C)cc1C
  cell number change: -10.5%
[1]
  AC50: 6.51 nM [rising, full curve, poor fit]

## O=C(c1cn(-c2ccccc2)nc1-c1cccs1)N(CCO)Cc1ccccc1
[1]
  AC50: 461 nM [rising, partial curve]

## COc1ccc(C(=O)OCC(=O)N(C)C2CCS(=O)(=O)C2)cc1S(=O)(=O)N(C)Cc1ccccc1 (centres undefined)
  cell number change: -16.4%
[2]
  AC50: 820 nM [falling, full curve, poor fit]
[1]
  AC50: 10300 nM [falling, partial curve]

## Cc1ccc2c(c1)-c1c(cnn1CC(=O)N(Cc1ccco1)C1CCCCC1)CO2
[1]
  AC50: 9200 nM [rising, partial curve, poor fit]

## COC(=O)[C@@]1(Cc2ccc(F)cc2)[C@H]2c3cc(C(=O)N(C)C)n(CCSCCO)c3C[C@H]2CN1C(=O)c1ccccc1
  cell number change: -1.7%
[1]
  AC50: 4.61 nM [rising, full curve, poor fit]

## O=C(NN=C1CCCC1)c1cc(-c2ccccc2)n[nH]1
  cell number change: 7.78%
[1]
  AC50: 6510 nM [falling, single point]

## O=C(CNC(=O)c1cccc([N+](=O)[O-])c1)NC1CCCc2ccccc21 (centres undefined)
  cell number change: -1.55%

## CCCC[C@@H](CNC)NC[C@H](Cc1ccc(O)cc1)NCCc1ccc(OCC)cc1
  cell number change: 0.299%

## O=S(=O)(NCCc1csc(-c2cccnc2)n1)c1cccc(F)c1
  cell number change: -15.1%
[1]
  AC50: 7310 nM [falling, partial curve, poor fit]

## COc1ccc(-c2csc(NC(=O)CSc3n[nH]c(C)n3)n2)cc1
  cell number change: 1.3%

## CC1(c2ccc3noc(-c4ccc(F)cc4)c3c2)OCCO1
  cell number change: 31.2%
[2]
  AC50: 29100 nM [rising, single point]
[1]
  AC50: 25900 nM [rising, partial curve, poor fit]

## COc1cc(S(=O)(=O)N2CCOCC2)ccc1NC(=O)c1cc2c(s1)CCC2
[2]
  AC50: 580 nM [rising, single point]
[1]
  AC50: 580 nM [rising, partial curve]

## CC(=O)Nc1ccc(N(CC(=O)NCC2CCCO2)C(=O)CCC(=O)Nc2cc(C)on2)cc1 (centres undefined)
  cell number change: 0.952%

## O=C(NCc1ccc2c(c1)OCO2)C1CCN(C(=O)Nc2ccc(Cl)cc2)CC1
  cell number change: 29%
[1]
  AC50: 1640 nM [rising, partial curve]

## CCCOc1cc(CC(=O)NCc2ccco2)ccc1OC
  cell number change: 155%
[2]
  AC50: 20600 nM [rising, partial curve]

## CC(C)c1ccc(Nc2ncccc2C#N)cc1
  cell number change: -1.23%
[1]
  AC50: 164 nM [rising, full curve, poor fit]

## CCCCN1C(=O)C2NN=C(C(=O)OCC)C2C1=O (centres undefined)
  cell number change: -13%
[1]
  AC50: 2060 nM [rising, single point]

## O=C(/C=C/c1cc2c(cc1Br)OCO2)NCc1ccc(F)cc1
[1]
  AC50: 920 nM [rising, full curve]

## COc1ccc(CN2C(=O)NC3(CCCc4ccccc43)C2=O)cc1F (centres undefined)
[2]
  AC50: 116 nM [rising, single point]
[1]
  AC50: 103 nM [rising, single point]

## COC(=O)c1cc(NC(=O)CSc2nnc(N)s2)ccc1Cl
  cell number change: 112%
[2]
  AC50: 20600 nM [rising, partial curve]

## COc1ccc2c(CC(=O)Nc3c(C)n(C)n(-c4ccccc4)c3=O)coc2c1
  cell number change: 81.7%
[2]
  AC50: 29100 nM [rising, single point]

## O=c1sc2ccccc2c(N2CCCCC2)c1[N+](=O)[O-]
  cell number change: -41.6%

## CCOC(=O)NC(=O)CSc1nc(C)cc(C(F)(F)F)c1C#N
  cell number change: 25.1%
[2]
  AC50: 1460 nM [rising, full curve, poor fit]
[1]
  AC50: 517 nM [rising, full curve]

## CC(C)(C)c1cc(OC(=O)c2ccccc2F)ccc1O
  cell number change: -48.4%
[2]
  AC50: 11600 nM [falling, partial curve]
[1]
  AC50: 8200 nM [falling, partial curve]

## O=[N+]([O-])c1cc(/C=N\O)ccc1Oc1ccc(F)cc1
  cell number change: 7.9%
[1]
  AC50: 920 nM [rising, full curve, poor fit]

## O=C(O)Cn1cc(/C=C/[N+](=O)[O-])c2ccccc21
  cell number change: 0.601%

## COC(=O)Nc1nn(Cc2ccccc2F)cc1Br
  cell number change: 14.9%
[1]
  AC50: 32600 nM [rising, single point]

## O=C(NCCOC(=O)c1cccs1)c1cccnc1
  cell number change: -15.7%
[1]
  AC50: 5800 nM [falling, single point]

## CC(=O)Nc1ccc(S(=O)(=O)NCc2ccncc2)cc1
  cell number change: -35.3%
[2]
  AC50: 11600 nM [falling, single point]
[1]
  AC50: 18400 nM [falling, partial curve]

## CC(=O)Nc1sc(N/N=C\c2ccccc2)nc1-c1cccs1
  cell number change: 20.2%

## O=C(Nc1ccc(F)c(F)c1)C1CCN(S(=O)(=O)c2cccc3nonc23)CC1
  cell number change: 30.6%
[2]
  AC50: 6510 nM [rising, single point]
[1]
  AC50: 130 nM [falling, full curve, poor fit]

## O=C(Cn1c(CN2CCCCC2)nc2ccccc2c1=O)Nc1ccccc1
  cell number change: 22.7%
[1]
  AC50: 2910 nM [rising, single point]

## N#CCC(=O)NCCCOC(=O)Nc1ccc(Cl)c(Cl)c1
  cell number change: -10.6%

## CN(C(=S)Nc1ccc(Oc2ccccc2)cc1)C1CCCCC1
  cell number change: -0.978%
[1]
  AC50: 29100 nM [rising, single point]

## COc1ccc2c(c1)OC[C@H]1[C@H]2N2C(=O)CN(Cc3ccc(C)cc3)C(=O)[C@@]2(C)[C@H]1c1ccccc1
  cell number change: 8.15%
[1]
  AC50: 18400 nM [falling, single point]
